Consider two molecules from PMC5599796, “Structural insights into transcription initiation by yeast RNA polymerase I” (The EMBO Journal, 2017).

No constants are given. Whether binding was seen depends on the method and setting. Some binding calls cover weakened binding; strength is not graded here.

Test [1] addresses T1, Rrn7 (yeast, UniProt P40992 1-514).
T1 construct: Rrn7, TFIIB-like subunit of yeast Core Factor; Stood in the assay as a subunit of CF within the Pol I PIC; also called CF subunit Rrn7; TFIIB-related subunit Rrn7; source: E. coli BL21(DE3)Star pRARE, co-expressed as Core Factor, purified
T1 sequence: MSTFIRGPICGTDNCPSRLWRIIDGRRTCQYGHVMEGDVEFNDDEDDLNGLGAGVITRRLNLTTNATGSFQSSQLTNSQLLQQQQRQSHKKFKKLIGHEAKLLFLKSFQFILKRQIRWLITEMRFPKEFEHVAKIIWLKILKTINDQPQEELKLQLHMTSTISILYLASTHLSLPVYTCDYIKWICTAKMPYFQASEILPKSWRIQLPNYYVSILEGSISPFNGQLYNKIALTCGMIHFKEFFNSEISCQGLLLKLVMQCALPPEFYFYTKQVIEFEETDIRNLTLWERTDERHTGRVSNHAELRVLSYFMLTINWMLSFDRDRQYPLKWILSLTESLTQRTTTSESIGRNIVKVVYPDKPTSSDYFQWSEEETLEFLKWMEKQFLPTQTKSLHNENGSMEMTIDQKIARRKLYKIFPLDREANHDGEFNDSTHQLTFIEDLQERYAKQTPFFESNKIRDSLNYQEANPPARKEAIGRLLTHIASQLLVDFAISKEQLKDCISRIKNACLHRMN
Nature of the test: cross-linking; purified Pol I PIC (50 ug, 1 mg/ml) with H12/D12 DSS at 2 and 5 mM, 30 min at 37°C; LC-MS/MS, xQuest, LD score at least 23; both purified.

Test [2] has as its target T1, Rrn7. In words: cryo-EM structure; Pol I (1.5 uM) and Rrn3 (3 uM) mixed 5 h at 4°C, then 70-bp transcription scaffold (-50 to +20, 15-nt mismatch, 10-nt RNA) 1 h, then CF (1.5 uM); dialysed from 300 to 100 mM potassium acetate, 50 mM HEPES-NaOH pH 7.5, 5 mM magnesium acetate, 10 mM DTT; 38,589 particles, 4.4 Å; both purified.
The next test has as its target T2, Rrn6 (yeast) (UniProt P32786).
T2 sequence: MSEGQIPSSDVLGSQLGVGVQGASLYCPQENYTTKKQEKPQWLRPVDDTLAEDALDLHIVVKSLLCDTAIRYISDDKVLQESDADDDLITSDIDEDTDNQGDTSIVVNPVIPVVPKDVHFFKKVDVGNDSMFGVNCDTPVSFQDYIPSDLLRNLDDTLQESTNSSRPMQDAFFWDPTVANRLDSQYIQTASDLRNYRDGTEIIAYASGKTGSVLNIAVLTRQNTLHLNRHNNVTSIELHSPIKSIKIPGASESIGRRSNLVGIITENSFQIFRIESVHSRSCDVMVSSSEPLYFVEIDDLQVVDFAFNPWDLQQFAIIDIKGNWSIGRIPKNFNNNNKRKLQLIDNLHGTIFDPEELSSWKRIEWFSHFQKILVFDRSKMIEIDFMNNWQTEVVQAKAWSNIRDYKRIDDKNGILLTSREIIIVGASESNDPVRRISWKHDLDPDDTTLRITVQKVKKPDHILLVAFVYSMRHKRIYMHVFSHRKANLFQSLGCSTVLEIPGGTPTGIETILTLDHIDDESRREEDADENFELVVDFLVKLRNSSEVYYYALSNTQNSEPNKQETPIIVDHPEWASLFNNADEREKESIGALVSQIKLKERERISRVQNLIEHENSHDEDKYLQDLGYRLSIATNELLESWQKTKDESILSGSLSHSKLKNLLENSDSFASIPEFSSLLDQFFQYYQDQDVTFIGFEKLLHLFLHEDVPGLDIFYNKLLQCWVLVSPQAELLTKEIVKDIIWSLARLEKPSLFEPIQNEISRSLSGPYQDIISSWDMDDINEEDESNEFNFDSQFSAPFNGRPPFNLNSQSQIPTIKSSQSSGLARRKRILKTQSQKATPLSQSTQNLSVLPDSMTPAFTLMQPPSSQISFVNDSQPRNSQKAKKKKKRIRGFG
Described as above.

B1: Rrn6 (protein, UniProt P32786 1-894)
chain: MSEGQIPSSDVLGSQLGVGVQGASLYCPQENYTTKKQEKPQWLRPVDDTLAEDALDLHIVVKSLLCDTAIRYISDDKVLQESDADDDLITSDIDEDTDNQGDTSIVVNPVIPVVPKDVHFFKKVDVGNDSMFGVNCDTPVSFQDYIPSDLLRNLDDTLQESTNSSRPMQDAFFWDPTVANRLDSQYIQTASDLRNYRDGTEIIAYASGKTGSVLNIAVLTRQNTLHLNRHNNVTSIELHSPIKSIKIPGASESIGRRSNLVGIITENSFQIFRIESVHSRSCDVMVSSSEPLYFVEIDDLQVVDFAFNPWDLQQFAIIDIKGNWSIGRIPKNFNNNNKRKLQLIDNLHGTIFDPEELSSWKRIEWFSHFQKILVFDRSKMIEIDFMNNWQTEVVQAKAWSNIRDYKRIDDKNGILLTSREIIIVGASESNDPVRRISWKHDLDPDDTTLRITVQKVKKPDHILLVAFVYSMRHKRIYMHVFSHRKANLFQSLGCSTVLEIPGGTPTGIETILTLDHIDDESRREEDADENFELVVDFLVKLRNSSEVYYYALSNTQNSEPNKQETPIIVDHPEWASLFNNADEREKESIGALVSQIKLKERERISRVQNLIEHENSHDEDKYLQDLGYRLSIATNELLESWQKTKDESILSGSLSHSKLKNLLENSDSFASIPEFSSLLDQFFQYYQDQDVTFIGFEKLLHLFLHEDVPGLDIFYNKLLQCWVLVSPQAELLTKEIVKDIIWSLARLEKPSLFEPIQNEISRSLSGPYQDIISSWDMDDINEEDESNEFNFDSQFSAPFNGRPPFNLNSQSQIPTIKSSQSSGLARRKRILKTQSQKATPLSQSTQNLSVLPDSMTPAFTLMQPPSSQISFVNDSQPRNSQKAKKKKKRIRGFG
On to B1, for which the binding entry in the test with Rrn7 [1] is “binds”.

B2: Rrn11 (natural protein, yeast)
chain: MFEVPITLTNRKFAQRRKLKYQYINYISRRFDRISKKSTTTDSLPTPENSAAENNDEEEGQNSEAGTYRRSVLQQKKRRRERHWRSVVGEIYSTTESETDSQEEETEEGGEHDTGIDKEDSDEERKFWKKYEKPEKSFEIWRTVSSQNKQPINKQKMTYHNFKKIEKIPLRKMEIPLLHCTKENKLYFQSISRGLEPLKTSTSEVRNYRTRHIVTLTDLLHLNVSRHNWSLAYKIFATLIRIPGVQIKSLWGIGVEILDNLSNSSSGLDFLQWMCQIYSSKSRFVQNINYRSIVPPFQTGSRTHTAKFAITYLWSSLINCQKSMEPSSNIIDKPFDTENDLLQELIDKISEWVLTPPFMEDAEVWFIYASCHLLKADTLSRQFVNDNKNNDLIGLDRDIKINQVIKHIHYVRTFLKICLDKGGFAVPSRLIENQLKSFESRLYGEAQDIQERDVANVYDSIDNSSVENSFGDVYETNAEFLDTQLMDLSPEDNGLDEMHYSDEDSSE
notes: Rrn11, subunit of yeast Core Factor; Stood in the assay as a subunit of CF within the Pol I PIC; also called CF subunit Rrn11; source: E. coli BL21(DE3)Star pRARE, co-expressed as Core Factor, purified
As for B2, the binding result in the test with Rrn7 [2] and with Rrn6 (yeast) was “binds” in each case.
